# Data as given in PubChem BioAssay AID1259254 (NCATS, 2017).
# Aim: 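Finding genes that stop cells copying their DNA twice in one cycle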 (primary screen)
# Cell system: human HCT116 colorectal cancer cells
# Knock-down reagent: single siRNA against human genes
# Duration: 3 days
# Measured: 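Nuclei stained with Hoechst and imaged; cell-cycle phase assigned by DNA content; G2 share scaled per plate, non-targeting siRNA 0%, GMNN siRNA 100%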
# Direction: G2 robust z-score: higher = more G2 cells, more excess DNA replication
# Hit rule: 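Active siRNAs have a G2 robust z of 5 or more median absolute deviations over the median, which in these data means about 38% or higher of GMNN control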
# In all, the deposit lists about 59,000 reagents; shown is a random part of them. About 1,550 of all reagents (2.6%) were called active. 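G2 share is only a proxy for re-replication; each gene was hit by three separate siRNAs, and active genes were retested.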 Not all columns of the deposit are shown. Reagent sequences are not shown. Not stated in the record: the amount of reagent.
target,PubChem SID,G2 robust z-score,call
CCNI2 (cyclin I family member 2),SID160769439,-0.215,inactive
CCNI2 (cyclin I family member 2),SID160769440,1.92,inactive
CCNI2 (cyclin I family member 2),SID160769442,-0.324,inactive
SIGLEC6 (sialic acid binding Ig like lectin 6),SID160732188,-0.0554,inactive
SIGLEC6 (sialic acid binding Ig like lectin 6),SID160732189,-1.05,inactive
SIGLEC6 (sialic acid binding Ig like lectin 6),SID160738966,-0.477,inactive
"CGA (glycoprotein hormones, alpha polypeptide)",SID160742203,1.43,inactive
"CGA (glycoprotein hormones, alpha polypeptide)",SID160742213,-0.631,inactive
"CGA (glycoprotein hormones, alpha polypeptide)",SID160742225,-0.0703,inactive
DYNLL1P7 (dynein light chain LC8-type 1 pseudogene 7),SID160772989,5.02,active
DYNLL1P7 (dynein light chain LC8-type 1 pseudogene 7),SID160772990,1.1,inactive
DYNLL1P7 (dynein light chain LC8-type 1 pseudogene 7),SID160772991,-0.706,inactive
RPL31P57 (ribosomal protein L31 pseudogene 57),SID160733962,0.542,inactive
RPL31P57 (ribosomal protein L31 pseudogene 57),SID160769763,-0.33,inactive
RPL31P57 (ribosomal protein L31 pseudogene 57),SID160769764,-0.929,inactive
MSH5 (mutS homolog 5),SID160777465,-0.209,inactive
MSH5 (mutS homolog 5),SID160777466,0.832,inactive
MSH5 (mutS homolog 5),SID160777467,2.61,inactive
FBLIM1 (filamin binding LIM protein 1),SID160724439,0.401,inactive
FBLIM1 (filamin binding LIM protein 1),SID160731463,-0.304,inactive
FBLIM1 (filamin binding LIM protein 1),SID160742100,0.201,inactive
TBC1D9 (TBC1 domain family member 9),SID160735584,4.27,inactive
TBC1D9 (TBC1 domain family member 9),SID160735585,0.929,inactive
TBC1D9 (TBC1 domain family member 9),SID160735586,-0.128,inactive
LINC00239 (long independently transcribed non-coding RNA 239),SID160758203,3.79,inactive
LINC00239 (long independently transcribed non-coding RNA 239),SID160758204,0.911,inactive
LINC00239 (long independently transcribed non-coding RNA 239),SID160758205,-0.816,inactive
CAMSAP3,SID160746522,-0.487,inactive
CAMSAP3,SID160746523,0.168,inactive
CAMSAP3,SID160746524,-0.663,inactive
PSMA7 (proteasome 20S subunit alpha 7),SID160715183,3.35,inactive
PSMA7 (proteasome 20S subunit alpha 7),SID160715184,1.44,inactive
PSMA7 (proteasome 20S subunit alpha 7),SID160731565,2.07,inactive
HELB (DNA helicase B),SID160754370,-0.168,inactive
HELB (DNA helicase B),SID160754371,-0.36,inactive
HELB (DNA helicase B),SID160754372,0.263,inactive
PGAM1P4 (phosphoglycerate mutase 1 pseudogene 4),SID160766691,3.1,inactive
PGAM1P4 (phosphoglycerate mutase 1 pseudogene 4),SID160766692,0.581,inactive
PGAM1P4 (phosphoglycerate mutase 1 pseudogene 4),SID160766693,-0.492,inactive
DDX60 (DExD/H-box helicase 60),SID160743867,-0.77,inactive
DDX60 (DExD/H-box helicase 60),SID160743868,-0.364,inactive
DDX60 (DExD/H-box helicase 60),SID160743869,-0.611,inactive
CD101 (CD101 molecule),SID160722114,0.461,inactive
CD101 (CD101 molecule),SID160722115,-0.284,inactive
CD101 (CD101 molecule),SID160722116,0.562,inactive
PTPRB (protein tyrosine phosphatase receptor type B),SID160715386,-0.445,inactive
PTPRB (protein tyrosine phosphatase receptor type B),SID160715387,-0.086,inactive
PTPRB (protein tyrosine phosphatase receptor type B),SID160715388,0.668,inactive
MFAP4 (microfibril associated protein 4),SID160777187,-0.263,inactive
MFAP4 (microfibril associated protein 4),SID160777188,-1.48,inactive
MFAP4 (microfibril associated protein 4),SID160777189,0.935,inactive

As entered above.
Under “call”, HELB (DNA helicase B) [SID160754370] shows inactive
Entry for DDX60 (DExD/H-box helicase 60) [SID160743867] in “G2 robust z-score”: -0.77
Entry of PSMA7 (proteasome 20S subunit alpha 7) [SID160715184] in “G2 robust z-score”: 1.44
CGA (glycoprotein hormones, alpha polypeptide) [SID160742225], G2 robust z-score → -0.0703
Entry for CD101 (CD101 molecule) [SID160722115] under “call”: inactive
Result for CAMSAP3 [SID160746522] in “call”: inactive

Continued.
target,PubChem SID,G2 robust z-score,call
CSMD2 (CUB and Sushi multiple domains 2),SID160754964,-0.614,inactive
CSMD2 (CUB and Sushi multiple domains 2),SID160754965,1.61,inactive
CSMD2 (CUB and Sushi multiple domains 2),SID160754966,0.0223,inactive
DTNA (dystrobrevin alpha),SID160730726,-0.945,inactive
DTNA (dystrobrevin alpha),SID160756918,0.543,inactive
DTNA (dystrobrevin alpha),SID160756927,0.0813,inactive
KLHL18 (kelch like family member 18),SID160735902,-0.125,inactive
KLHL18 (kelch like family member 18),SID160735903,1.73,inactive
KLHL18 (kelch like family member 18),SID160735905,3.63,inactive
COL8A2 (collagen type VIII alpha 2 chain),SID160732457,4.88,inactive
COL8A2 (collagen type VIII alpha 2 chain),SID160746229,1.92,inactive
COL8A2 (collagen type VIII alpha 2 chain),SID160746240,0.237,inactive
AKAP4 (A-kinase anchoring protein 4),SID160720974,0.182,inactive
AKAP4 (A-kinase anchoring protein 4),SID160720975,0.871,inactive
AKAP4 (A-kinase anchoring protein 4),SID160720976,-0.323,inactive
RPL32 (ribosomal protein L32),SID160716092,1.4,inactive
RPL32 (ribosomal protein L32),SID160716094,3.04,inactive
RPL32 (ribosomal protein L32),SID160716095,-0.705,inactive
P2RY2 (purinergic receptor P2Y2),SID160778501,-1.09,inactive
P2RY2 (purinergic receptor P2Y2),SID160778502,1.48,inactive
P2RY2 (purinergic receptor P2Y2),SID160778503,2.43,inactive
RHOT2 (ras homolog family member T2),SID160753515,0.46,inactive
RHOT2 (ras homolog family member T2),SID160753517,-1.2,inactive
RHOT2 (ras homolog family member T2),SID160753518,-0.741,inactive
HNRNPA0 (heterogeneous nuclear ribonucleoprotein A0),SID160729596,-0.572,inactive
HNRNPA0 (heterogeneous nuclear ribonucleoprotein A0),SID160729597,-0.755,inactive
HNRNPA0 (heterogeneous nuclear ribonucleoprotein A0),SID160729598,-1.06,inactive
SEC61G (SEC61 translocon subunit gamma),SID160732767,4.26,inactive
SEC61G (SEC61 translocon subunit gamma),SID160736370,3.69,inactive
SEC61G (SEC61 translocon subunit gamma),SID160736371,2.21,inactive
GRK7 (G protein-coupled receptor kinase 7),SID160757107,0.331,inactive
GRK7 (G protein-coupled receptor kinase 7),SID160757108,-0.359,inactive
GRK7 (G protein-coupled receptor kinase 7),SID160757109,1.47,inactive
HINFP (histone H4 transcription factor),SID160737400,0.195,inactive
HINFP (histone H4 transcription factor),SID160737401,7.76,active
HINFP (histone H4 transcription factor),SID160737402,0.247,inactive
